Measurements reported in patent publication US20240424071A1, “NOVEL MUTANT OF RECOMBINANT GANODERMA LUCIDUM IMMUNOMODULATORY PROTEIN AND USE THEREOF” (CHANGCHUN INTELLICROWN PHARMACEUTICAL CO., LTD., priority 2021, published 2024).

Columns and labels:
[1] = test system: LI6669B organoid; experiment: PDXO organoid growth inhibition (CTG 3D), liver cancer LI6669B; assay type: cell-based, human; conditions: EGFR wild-type
Method: (§1) • a) 20 μl of 100× Dispase solution was added in to a 6-well plate (containing 2 mL of organism culture medium), and organoid was collected from each well. b) The 6-well plate was returned into the incubator and cultured at 37° C. for 30 min. c) The organoid was collected from the 6-well plate, and transferred by a pre-wetted 100 μm filter into a 50 mL plastic tube. d) Once all the wells were filtered by 100 μm filter, the flow was filtered by a pre-wetting 20 μm filter. e) The 20 μm filter was inverted, and the organoid was collected in a new 50 mL tube. f) The organoid was collected and re-suspended in the corresponding culture medium. The organoid was calculated for their concentrations. g) The cell concentration was adjusted with the medium to an appropriate concentration. h) Matrigel was added to a final concentration of 5% v/v, and the organoid was suspended on ice. i) 40 μL of cell suspension was added with a Multidrop dispenser into a 384-well plate. […]
(§2) 40 μL of CTG 3D was added into each well by a Multidrop dispenser; the content was mixed on a plate oscillator for 5 min; and then the place was incubated at room temperature in dark for 30 min. The luminous signal was read on an Envision plate reader. […]

[2] = test system: LU1235B organoid; experiment: PDXO organoid growth inhibition (CTG 3D), lung cancer LU1235B; assay type: cell-based; conditions: EGFR wild-type
Method: as §1, §2

[3] = test system: PA0787B organoid; experiment: PDXO organoid growth inhibition (CTG 3D), pancreatic cancer PA0787B; assay type: cell-based
Method: as §1, §2

[4] = test system: LI6677B organoid; experiment: PDXO organoid growth inhibition (CTG 3D), liver cancer LI6677B; assay type: cell-based; conditions: EGFR wild-type
Method: as §1, §2

[5] = test system: LU11624B organoid; experiment: PDXO organoid growth inhibition (CTG 3D), lung cancer LU11624B; assay type: cell-based
Method: as §1, §2

[6] = test system: LU5162B organoid; experiment: PDXO organoid growth inhibition (CTG 3D), lung cancer LU5162B; assay type: cell-based
Method: as §1, §2

[7] = test system: CR5043B organoid; experiment: PDXO organoid growth inhibition (CTG 3D), colorectal cancer CR5043B; assay type: cell-based
Method: as §1, §2

[8] = test system: GA6833B organoid; experiment: PDXO organoid growth inhibition (CTG 3D), gastric cancer GA6833B; assay type: cell-based; conditions: EGFR wild-type
Method: as §1, §2

[9] = test system: CR3099B organoid; experiment: PDXO organoid growth inhibition (CTG 3D), colorectal cancer CR3099B; assay type: cell-based
Method: as §1, §2

[10] = test system: CR5082B organoid; experiment: PDXO organoid growth inhibition (CTG 3D), colorectal cancer CR5082B; assay type: cell-based
Method: as §1, §2

[11] = test system: GA2434B organoid; experiment: PDXO organoid growth inhibition (CTG 3D), gastric cancer GA2434B; assay type: cell-based
Method: as §1, §2

[12] = test system: PA20078B organoid; experiment: PDXO organoid growth inhibition (CTG 3D), pancreatic cancer PA20078B; assay type: cell-based; conditions: EGFR wild-type
Method: as §1, §2

[13] = test system: CR20035B organoid; experiment: PDXO organoid growth inhibition (CTG 3D), colorectal cancer CR20035B; assay type: cell-based; conditions: EGFR wild-type, read Day 5
Method: as §1, §2

CN[C@@H]1C[C@H]2O[C@@](C)([C@@H]1OC)n1c3ccccc3c3c4c(c5c6ccccc6n2c5c31)C(=O)NC4 [Staurosporine, reference compound]
Maximum Inhibition Rate (%) [1]: 100.07%
Maximum Inhibition Rate (%) [2]: 100.13%
Maximum Inhibition Rate (%) [3]: 100.06%
Maximum Inhibition Rate (%) [4]: 100.10%
Maximum Inhibition Rate (%) [5]: 100.05%
Maximum Inhibition Rate (%) [6]: 100.03%
Maximum Inhibition Rate (%) [7]: 100.00%
Maximum Inhibition Rate (%) [8]: 100.01%
Maximum Inhibition Rate (%) [9]: 100.64%
Maximum Inhibition Rate (%) [10]: 99.98%
Maximum Inhibition Rate (%) [11]: 99.98%
Maximum Inhibition Rate (%) [12]: 100.72%
Maximum Inhibition Rate (%) [13]: 100.04%
